Assay results: PubChem BioAssay AID1794845 (National Center for Advancing Translational Sciences (NCATS), 2023)
Among all 6,900 compounds or so, fewer than 10 were called active. Calls follow the shape of the dose curve; as a rule, active = well fitted curve in the direction sought with a large enough effect; inconclusive = small, poorly fitted or top-dose-only effect, or another doubt; inactive = no such curve, though single readings can be large or run the other way. The list shows a part of the results.

Amino acid sequences for entries named in this document (tags omitted). A change or cut given only in a name is not applied to a line headed by its entry.
UniProt C7C422: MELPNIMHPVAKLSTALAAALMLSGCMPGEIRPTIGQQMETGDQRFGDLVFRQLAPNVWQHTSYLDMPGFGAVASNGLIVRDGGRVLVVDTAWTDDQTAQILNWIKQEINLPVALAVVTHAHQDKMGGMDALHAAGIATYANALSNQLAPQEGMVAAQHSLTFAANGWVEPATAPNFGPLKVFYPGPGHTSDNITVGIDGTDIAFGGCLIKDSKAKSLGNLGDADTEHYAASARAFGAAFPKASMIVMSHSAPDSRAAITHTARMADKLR

These compounds were tested against Metallo-beta-lactamase type 2 (Klebsiella pneumoniae) (UniProt C7C422) (assay: qHTS to identify inhibitors of the New Delhi Metallo-beta-lactamase (NDM): primary screen against the NCATS Gemini Collection). Conditions: NDM-1 enzyme, meropenem hydrolysis, absorbance 300 nm; at 38.4 µM (top of the series) unless noted.
How it was run: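 NDM-1 at 2 nM final in 50 mM HEPES pH 7.0, 1 uM ZnSO4, 0.01% Tween20, preincubated >30 min with compound. Meropenem 50 uM final added; absorbance at 300 nm after 30 min.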
Also: % of control where 0% means no effect.

SMILES	activity % (negative = inhibition)
CN(Cc1cc(F)c(F)c(F)c1)C1CCc2nn(CC3CC3)c(=O)n2CC1 (stereo not drawn)	inactive: 16%
Cc1nc([C@@H]2CN(C(=O)c3nn(C)c4ccccc34)C[C@H]2C(N)=O)n[nH]1	inactive: 20.5%
CC(C)CCNC(=O)[C@H]1CN(Cc2ccccc2)C[C@H]1C(=O)O	inactive: 1.31%
O=C1CN([S+](=O)([O-])c2ccc(F)cc2)CC(O)CN1Cc1cccs1 (stereo not drawn)	inactive: 2.28%
CC(=O)N1CC2(CCCN(C3CCCCC3)C2)Cc2ccccc21 (stereo not drawn)	inactive: 0.985%
COCc1nc(-c2ccc(OC3CN(C(=O)NCc4ccc(OC)cc4)C3)cc2)no1	inactive: 9.24%
CC1(c2noc(C3CC3)n2)CCN(C(=O)CCCc2nc3ccccc3s2)CC1	inactive: -0.598%
Cc1ccccc1Cc1c(C)nc2c(C(=O)N3CCC(Cc4nncn4CC4CC4)CC3)cnn2c1C	inactive: 22.3%
CNC(=O)N1CCCC(n2c(C)cnc2-c2ccncc2)C1 (stereo not drawn)	inactive: 1.34%
COc1cccc(CNC(=O)NC2CCc3n[nH]c(=O)n3CC2)c1 (stereo not drawn)	inactive: -0.469%
COc1ccc([C@@H]2CN(c3nnnn3-c3ccccc3)C[C@H]2NC(C)=O)cc1	inactive: 0.261%
Cc1ccc(NC(=O)C2N(C(C)C)C(=O)C23CCCCC3)cc1 (stereo not drawn)	inactive: 0.865%
Cc1ccc(C(=O)N2CCC(C(=O)N3CCCCCCNC(=O)CC3)CC2)s1	inactive: 0.335%
Cc1noc([C@@H]2CN(Cc3ccc[nH]3)C[C@H]2CO)n1	inactive: 10.5%
O=C(c1ccc(-c2ccc(O)cc2)cc1)N1CCOC2(CNCCOC2)C1 (stereo not drawn)	inactive: 3.21%
COCCCNC(=O)C(NC(=O)C1CC1)C1CCN(C(=O)c2ccc(C)cc2)CC1 (stereo not drawn)	inactive: 34.1%
c1ccc(OCCNc2nc(-c3cccnc3)nc3c2CCNCC3)cc1	inactive: -0.698%
COc1ccc(OC2CCN(C(C)=O)CC2)c(C(=O)NCCc2ccccc2OC)c1	inactive: -0.467%
O=C(c1ccoc1)N1CCC(Cc2nc(C3CC3)n[nH]2)C1 (stereo not drawn)	inactive: -1.2%
COc1ccc(C(=O)N2CCC3(CC2)OCC(C(=O)NC2CC2)N3C(=O)c2cccc(C)c2)cc1 (stereo not drawn)	inactive: 15.3%
COc1ccc(N2CCN(C(=O)COc3cccc(-c4nnc5n4CCCC5)c3)CC2)cc1	inactive: 4.75%
CN1CC(=O)N(C2CCNC2)Cc2c(NCCc3cccc(F)c3)ncnc21 (stereo not drawn)	inactive: 18.3%

Reprinted at random: 2 compounds from above.
SMILES	activity % (negative = inhibition)
Cc1ccccc1Cc1c(C)nc2c(C(=O)N3CCC(Cc4nncn4CC4CC4)CC3)cnn2c1C	inactive: 22.3%
c1ccc(OCCNc2nc(-c3cccnc3)nc3c2CCNCC3)cc1	inactive: -0.698%

Later entries

SMILES	activity % (negative = inhibition)
O=C(O)C[C@@H]1CCN(C(=O)c2ccco2)C[C@@H]1CCN1CCOCC1	inactive: -0.225% [at 57.5 µM]
COc1cccc(CNC(=O)C2CN(c3ccc(F)cc3)C(=O)N2)c1 (stereo not drawn)	inactive: 0.276%
CNC(=O)Cn1nc(C(=O)N2CCC3(CC2)[C@H](O)C[C@@H]3O)cc1C	inactive: 4.84%
CC(C)c1ccc(CN2CCCC3(CCN(S(C)(=O)=O)C3)C2=O)cc1 (stereo not drawn)	inactive: 13.2%
C=CCOc1c(OC)ccc2c1CN(Cc1ccco1)C(=O)CCN2CC(O)COCc1ccco1 (stereo not drawn)	inactive: -5.22%
O=C1Nc2ccccc2C(=O)N2CC[C@H](NS(=O)(=O)c3cccs3)[C@@H]12	inactive: 16.5% [at 57.5 µM]
NC(=O)c1ccccc1OC[C@@H]1CCCN2CCCC[C@H]12	inactive: 8.59%
O=C(NC1CC1)c1cc2n(n1)CCCN(C(=O)c1ccccc1-c1ccccc1)C2	inactive: -3.19%
COc1ccc(C(=O)N[C@@H]2CCC[C@@H]2C(=O)NCc2ccc(C)o2)cn1	inactive: -0.106%
CN(Cc1ncc[nH]1)C(=O)C1CCC(=O)N(CCc2ccccn2)C1 (stereo not drawn)	inactive: 53.9%
CC1CCCN(c2ncnc3c2CN(c2cccnc2)C(=O)CN3C)C1 (stereo not drawn)	inactive: 4.35%
CCc1cc(C(=O)N2CCOCC2CC(=O)N2CCSCC2)cs1 (stereo not drawn)	inactive: -1.86%
COCC(=O)N1CCC(Oc2ccccc2C(=O)N2CCN(c3ccccn3)CC2)CC1	inactive: 7.46%
CNC(=O)c1cccc(S(=O)(=O)NC2CCCN(C3CCCCCC3)C2)c1 (stereo not drawn)	inactive: 13%
CCc1cc(=O)n(CC(=O)N2CCN(c3ccccc3OC)CC2)c(-c2ccccc2)n1	inactive: -0.786%
CN1C[C@H](O)C[C@H]1c1nnc2n1CCN(C(=O)c1cccnc1)CC2	inactive: 0.953%
Cn1c(Cn2ccnc2)nnc1C1CCCN(CCOCc2ccccc2)C1 (stereo not drawn)	inactive: 36.4%
COc1ccc(C(=O)NC[C@H]2O[C@@H](CC(=O)Nc3ccccc3)[C@H](O)[C@@H]2O)cc1	inactive: -1.83% [at 57.5 µM]
COc1ccc(CC(=O)N2CC[C@@H](CC(=O)O)[C@@H](CCN(C)c3ccccc3)C2)cc1	inactive: 43.7% [at 57.5 µM]
CNC(=O)c1cc(C2CC2)nc2c1c(C1CCCN1C(=O)c1ccc(C(F)(F)F)cc1)nn2C (stereo not drawn)	inactive: 3.13%
CN1CC(C(=O)N2CCN(Cc3ccccc3)CC2)NC1=O (stereo not drawn)	inactive: 4.15% [at 57.5 µM]
